We go through three molecules from publication PMC1514790, “Tomosyn Inhibits Synaptic Vesicle Priming in Caenorhabditis elegans” (PLoS Biology, 2006).

Sequences of proteins named here, by UniProt entry; tags and fusion partners are left off.
UniProt P60881: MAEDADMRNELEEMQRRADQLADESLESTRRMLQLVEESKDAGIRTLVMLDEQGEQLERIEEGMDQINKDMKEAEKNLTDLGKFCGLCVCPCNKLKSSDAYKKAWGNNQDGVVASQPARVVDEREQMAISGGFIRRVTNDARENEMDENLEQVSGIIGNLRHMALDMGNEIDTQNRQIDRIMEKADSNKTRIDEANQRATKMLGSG

The target in test [1] is T1, C. elegans syntaxin-GST (UNC-64 cytoplasmic domain, aa 1-266) (C. elegans) (UniProt O16000).
T1 sequence: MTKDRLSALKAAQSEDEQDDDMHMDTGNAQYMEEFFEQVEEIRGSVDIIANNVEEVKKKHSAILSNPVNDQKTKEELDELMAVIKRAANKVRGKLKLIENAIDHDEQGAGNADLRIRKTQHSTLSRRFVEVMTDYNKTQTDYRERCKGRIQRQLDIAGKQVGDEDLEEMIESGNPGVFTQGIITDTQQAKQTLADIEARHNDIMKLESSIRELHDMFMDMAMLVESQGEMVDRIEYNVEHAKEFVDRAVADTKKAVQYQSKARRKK
Briefly: pull-down; binary: C. elegans GST syntaxin incubated with either rat SNAP-25 or TOM-1Ct alone, collected on glutathione agarose, washed; Coomassie Blue staining of supernatant and beads; both purified.

For test [2], the target named is T1, C. elegans syntaxin-GST (UNC-64 cytoplasmic domain, aa 1-266) (C. elegans). Briefly: pull-down; ~1.6 uM each of C. elegans syntaxin-GST, rat SNAP-25-His6 and His6-TOM-1Ct or His6-SNB-1, 2 h to overnight at 4 °C in D-buffer, isolated on glutathione agarose; Coomassie Blue staining, densitometry; both purified.
Test [3] has the same target. Briefly: pull-down; C. elegans syntaxin-GST incubated with C. elegans SNAP-25-His6 and His6T7-TOM-1Ct or His6T7-SNB-1, isolated on glutathione agarose; 4 °C, D-buffer (10 mM HEPES pH 7.9, 140 mM KCl, 0.5% Triton X-100, 0.1 mM PMSF); immunoblot with anti-GST, anti-His6, anti-T7; both purified. On the technique in general: A western blot detects proteins with antibodies after separation by electrophoresis.

These are yes or no findings as the source states them, for the method shown. Some binding calls cover weakened binding; strength is not graded here. Sequences can lack the tags named with a protein.

As for “Rat SNAP-25-His6 (from UniProt P60881 1-206)”, the binding entry in test [1] and in test [2] was “binds” in each case.

B1: C. elegans SNAP-25-His6 (RIC-4) (protein, UniProt O62414 1-207)
chain: MSGDDDIPEGLEAINLKMNATTDDSLESTRRMLALCEESKEAGIKTLVMLDDQGEQLERCEGALDTINQDMKEAEDHLKGMEKCCGLCVLPWNKTDDFEKTEFAKAWKKDDDGGVISDQPRITVGDSSMGPQGGYITKITNDAREDEMDENVQQVSTMVGNLRNMAIDMSTEVSNQNRQLDRIHDKAQSNEVRVESANKRAKNLITK
For B1, the binding result in test [3] is reported as “binds weakly”.

B2: C. elegans synaptobrevin SNB-1 cytoplasmic domain (aa 1-88), His6T7-tagged (domain or fragment, UniProt O02495 1-88, looked up)
chain: MDAQGDAGAQGGSQGGPRPSNKRLQQTQAQVDEVVGIMKVNVEKVLERDQKLSQLDDRADALQEGASQFEKSAATLKRKYWWKNIKMM
notes: C. elegans synaptobrevin (SNB-1), cytoplasmic domain aa 1-88, lacking the TM domain, cloned into pRSETC; also called His6T7-tagged SNB-1; His6-SNB-1; source: recombinant, purified (Ni-NTA agarose)
In the case of B2, the binding result in test [3] was “binds weakly”.
